According to the supplement of paper PMC10849652:
This is one part of the list.

Protein sequences, listed by entry. Tags and fused reporters are not part of them. Lines headed by an entry give the natural chain unless they say otherwise; changes in a name come on top.
UniProt Q9UHW9: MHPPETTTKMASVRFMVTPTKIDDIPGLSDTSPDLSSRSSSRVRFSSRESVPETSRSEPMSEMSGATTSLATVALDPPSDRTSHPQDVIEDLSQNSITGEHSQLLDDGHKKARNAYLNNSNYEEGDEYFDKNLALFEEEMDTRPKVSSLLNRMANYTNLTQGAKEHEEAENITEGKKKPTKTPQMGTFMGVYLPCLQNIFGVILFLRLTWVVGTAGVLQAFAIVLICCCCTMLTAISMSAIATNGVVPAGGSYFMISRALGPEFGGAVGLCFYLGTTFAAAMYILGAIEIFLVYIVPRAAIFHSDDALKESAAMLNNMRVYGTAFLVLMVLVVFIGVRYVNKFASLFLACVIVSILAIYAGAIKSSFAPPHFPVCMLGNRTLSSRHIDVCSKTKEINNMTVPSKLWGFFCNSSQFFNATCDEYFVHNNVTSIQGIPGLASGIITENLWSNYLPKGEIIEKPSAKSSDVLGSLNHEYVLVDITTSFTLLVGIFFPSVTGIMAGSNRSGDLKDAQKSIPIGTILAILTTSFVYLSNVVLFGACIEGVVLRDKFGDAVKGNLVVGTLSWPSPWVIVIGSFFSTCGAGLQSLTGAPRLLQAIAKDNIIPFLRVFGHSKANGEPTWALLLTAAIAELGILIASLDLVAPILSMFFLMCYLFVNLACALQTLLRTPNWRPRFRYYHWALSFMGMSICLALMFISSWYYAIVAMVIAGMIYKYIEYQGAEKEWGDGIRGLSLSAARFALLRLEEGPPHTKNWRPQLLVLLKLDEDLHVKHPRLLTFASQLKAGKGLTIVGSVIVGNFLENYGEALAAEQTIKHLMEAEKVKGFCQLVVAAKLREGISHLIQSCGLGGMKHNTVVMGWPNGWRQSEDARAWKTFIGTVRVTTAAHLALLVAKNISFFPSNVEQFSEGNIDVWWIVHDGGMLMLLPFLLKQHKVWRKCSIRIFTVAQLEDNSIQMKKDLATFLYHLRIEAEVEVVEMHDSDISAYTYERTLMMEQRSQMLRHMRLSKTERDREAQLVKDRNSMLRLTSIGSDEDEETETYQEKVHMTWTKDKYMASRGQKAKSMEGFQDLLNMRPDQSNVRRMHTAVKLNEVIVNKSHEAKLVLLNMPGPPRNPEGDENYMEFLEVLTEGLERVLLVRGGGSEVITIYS
UniProt P78314: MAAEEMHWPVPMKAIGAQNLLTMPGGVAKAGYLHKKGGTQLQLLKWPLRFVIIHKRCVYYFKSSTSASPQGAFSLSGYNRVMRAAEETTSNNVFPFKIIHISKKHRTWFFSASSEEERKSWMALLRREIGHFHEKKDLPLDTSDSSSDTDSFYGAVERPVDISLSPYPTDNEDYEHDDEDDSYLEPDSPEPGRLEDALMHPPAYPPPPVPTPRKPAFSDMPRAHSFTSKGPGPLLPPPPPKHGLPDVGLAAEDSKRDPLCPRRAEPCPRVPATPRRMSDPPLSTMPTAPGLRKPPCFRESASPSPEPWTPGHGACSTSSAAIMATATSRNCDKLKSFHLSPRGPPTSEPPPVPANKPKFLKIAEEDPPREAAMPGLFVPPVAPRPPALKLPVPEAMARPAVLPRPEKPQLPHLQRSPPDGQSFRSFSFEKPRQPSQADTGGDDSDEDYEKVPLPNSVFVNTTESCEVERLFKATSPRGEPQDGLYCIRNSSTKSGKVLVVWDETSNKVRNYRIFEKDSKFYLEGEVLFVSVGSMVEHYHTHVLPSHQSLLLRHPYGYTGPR
UniProt Q96JX3: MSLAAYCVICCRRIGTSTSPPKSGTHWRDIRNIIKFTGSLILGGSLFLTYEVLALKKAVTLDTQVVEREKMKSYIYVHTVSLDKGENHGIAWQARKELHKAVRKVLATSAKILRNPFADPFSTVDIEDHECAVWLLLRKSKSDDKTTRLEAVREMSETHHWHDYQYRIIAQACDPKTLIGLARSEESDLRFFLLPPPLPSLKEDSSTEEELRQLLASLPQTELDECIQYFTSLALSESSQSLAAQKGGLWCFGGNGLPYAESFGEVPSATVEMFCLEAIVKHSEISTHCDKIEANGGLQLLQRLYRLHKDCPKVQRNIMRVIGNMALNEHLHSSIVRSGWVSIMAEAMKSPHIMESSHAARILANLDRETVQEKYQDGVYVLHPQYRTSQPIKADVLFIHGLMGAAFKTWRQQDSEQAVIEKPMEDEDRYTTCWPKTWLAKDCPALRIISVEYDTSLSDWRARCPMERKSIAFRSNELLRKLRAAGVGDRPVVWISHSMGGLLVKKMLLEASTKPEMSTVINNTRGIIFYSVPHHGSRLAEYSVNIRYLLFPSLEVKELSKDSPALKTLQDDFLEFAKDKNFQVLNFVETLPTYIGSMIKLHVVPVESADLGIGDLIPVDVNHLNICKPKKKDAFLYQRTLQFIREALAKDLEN
UniProt Q9Y2K2: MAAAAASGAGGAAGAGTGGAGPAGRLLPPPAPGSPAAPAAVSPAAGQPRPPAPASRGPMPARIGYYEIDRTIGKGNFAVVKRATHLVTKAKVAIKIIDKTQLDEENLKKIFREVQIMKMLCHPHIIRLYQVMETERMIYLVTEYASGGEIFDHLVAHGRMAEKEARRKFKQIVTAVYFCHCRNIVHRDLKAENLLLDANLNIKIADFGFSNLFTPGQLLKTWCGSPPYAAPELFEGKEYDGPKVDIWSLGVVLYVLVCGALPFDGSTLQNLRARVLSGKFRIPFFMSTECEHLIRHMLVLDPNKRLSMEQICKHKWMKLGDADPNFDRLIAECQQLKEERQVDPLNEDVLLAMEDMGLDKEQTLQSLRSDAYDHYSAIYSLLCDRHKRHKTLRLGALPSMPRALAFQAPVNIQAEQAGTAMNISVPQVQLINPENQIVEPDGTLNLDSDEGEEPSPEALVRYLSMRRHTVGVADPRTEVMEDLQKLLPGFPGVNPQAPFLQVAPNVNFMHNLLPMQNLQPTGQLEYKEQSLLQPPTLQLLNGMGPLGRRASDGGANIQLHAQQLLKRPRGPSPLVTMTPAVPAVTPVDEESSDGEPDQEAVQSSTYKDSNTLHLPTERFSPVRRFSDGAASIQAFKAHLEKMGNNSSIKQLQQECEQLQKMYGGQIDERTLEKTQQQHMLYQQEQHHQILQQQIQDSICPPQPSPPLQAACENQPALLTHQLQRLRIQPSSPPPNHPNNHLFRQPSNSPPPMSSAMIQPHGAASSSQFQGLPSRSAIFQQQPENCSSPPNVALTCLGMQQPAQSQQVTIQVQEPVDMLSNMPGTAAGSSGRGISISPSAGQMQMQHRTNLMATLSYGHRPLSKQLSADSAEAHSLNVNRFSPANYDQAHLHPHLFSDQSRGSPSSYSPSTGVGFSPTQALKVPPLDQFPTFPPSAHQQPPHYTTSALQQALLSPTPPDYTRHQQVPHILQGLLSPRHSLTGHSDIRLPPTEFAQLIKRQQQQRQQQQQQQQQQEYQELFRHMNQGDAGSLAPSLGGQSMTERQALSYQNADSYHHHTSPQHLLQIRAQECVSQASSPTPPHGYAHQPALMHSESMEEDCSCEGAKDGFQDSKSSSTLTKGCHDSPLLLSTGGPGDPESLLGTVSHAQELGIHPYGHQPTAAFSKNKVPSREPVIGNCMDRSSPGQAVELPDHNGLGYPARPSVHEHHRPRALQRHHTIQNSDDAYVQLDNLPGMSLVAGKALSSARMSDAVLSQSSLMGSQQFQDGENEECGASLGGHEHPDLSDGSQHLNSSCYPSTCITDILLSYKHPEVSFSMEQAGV
UniProt O14796: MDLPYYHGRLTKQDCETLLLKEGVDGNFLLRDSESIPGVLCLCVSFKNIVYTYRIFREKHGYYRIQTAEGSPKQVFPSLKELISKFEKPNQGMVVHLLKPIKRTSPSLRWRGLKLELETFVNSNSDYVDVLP
UniProt Q9HAT2: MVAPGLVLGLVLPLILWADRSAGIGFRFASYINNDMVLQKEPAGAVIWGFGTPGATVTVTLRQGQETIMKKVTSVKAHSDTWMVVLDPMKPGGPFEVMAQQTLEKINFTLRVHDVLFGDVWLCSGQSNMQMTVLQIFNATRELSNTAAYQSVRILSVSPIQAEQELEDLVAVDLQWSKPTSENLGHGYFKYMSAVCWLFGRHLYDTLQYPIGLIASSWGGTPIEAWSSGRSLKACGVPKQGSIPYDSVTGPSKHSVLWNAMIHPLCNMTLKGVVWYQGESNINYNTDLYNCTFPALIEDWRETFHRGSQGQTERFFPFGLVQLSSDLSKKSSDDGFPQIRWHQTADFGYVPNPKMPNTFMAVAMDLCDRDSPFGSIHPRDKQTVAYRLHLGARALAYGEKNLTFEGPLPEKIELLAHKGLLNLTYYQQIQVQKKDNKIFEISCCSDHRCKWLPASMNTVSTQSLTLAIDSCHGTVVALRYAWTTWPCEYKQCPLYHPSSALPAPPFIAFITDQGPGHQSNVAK
UniProt Q9BRG2: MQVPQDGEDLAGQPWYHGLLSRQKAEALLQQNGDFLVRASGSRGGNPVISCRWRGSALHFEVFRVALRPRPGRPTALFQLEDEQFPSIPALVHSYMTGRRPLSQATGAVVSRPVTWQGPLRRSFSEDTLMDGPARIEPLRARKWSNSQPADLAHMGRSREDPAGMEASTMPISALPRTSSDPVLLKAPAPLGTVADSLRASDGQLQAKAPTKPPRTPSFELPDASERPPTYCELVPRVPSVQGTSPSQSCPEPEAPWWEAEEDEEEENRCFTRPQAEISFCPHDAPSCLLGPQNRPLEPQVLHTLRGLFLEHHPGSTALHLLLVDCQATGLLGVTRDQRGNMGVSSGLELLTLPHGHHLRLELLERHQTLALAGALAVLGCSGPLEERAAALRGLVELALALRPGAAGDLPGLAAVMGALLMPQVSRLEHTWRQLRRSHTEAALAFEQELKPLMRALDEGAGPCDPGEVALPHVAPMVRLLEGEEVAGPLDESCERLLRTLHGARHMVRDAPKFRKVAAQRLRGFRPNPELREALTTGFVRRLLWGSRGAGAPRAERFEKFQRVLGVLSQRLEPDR
UniProt P08697: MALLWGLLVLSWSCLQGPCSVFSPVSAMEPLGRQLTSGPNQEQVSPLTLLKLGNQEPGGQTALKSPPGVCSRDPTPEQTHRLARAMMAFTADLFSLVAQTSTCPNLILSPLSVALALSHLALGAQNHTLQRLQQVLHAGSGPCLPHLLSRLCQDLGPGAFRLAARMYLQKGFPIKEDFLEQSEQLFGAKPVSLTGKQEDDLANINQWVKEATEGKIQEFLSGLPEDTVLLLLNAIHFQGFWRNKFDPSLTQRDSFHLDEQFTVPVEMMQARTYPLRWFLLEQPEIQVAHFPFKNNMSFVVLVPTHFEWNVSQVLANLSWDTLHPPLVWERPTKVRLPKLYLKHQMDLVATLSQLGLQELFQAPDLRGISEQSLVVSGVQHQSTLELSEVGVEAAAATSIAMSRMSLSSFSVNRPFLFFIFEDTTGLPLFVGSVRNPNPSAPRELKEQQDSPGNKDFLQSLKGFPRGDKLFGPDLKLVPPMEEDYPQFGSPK
UniProt Q96EP9: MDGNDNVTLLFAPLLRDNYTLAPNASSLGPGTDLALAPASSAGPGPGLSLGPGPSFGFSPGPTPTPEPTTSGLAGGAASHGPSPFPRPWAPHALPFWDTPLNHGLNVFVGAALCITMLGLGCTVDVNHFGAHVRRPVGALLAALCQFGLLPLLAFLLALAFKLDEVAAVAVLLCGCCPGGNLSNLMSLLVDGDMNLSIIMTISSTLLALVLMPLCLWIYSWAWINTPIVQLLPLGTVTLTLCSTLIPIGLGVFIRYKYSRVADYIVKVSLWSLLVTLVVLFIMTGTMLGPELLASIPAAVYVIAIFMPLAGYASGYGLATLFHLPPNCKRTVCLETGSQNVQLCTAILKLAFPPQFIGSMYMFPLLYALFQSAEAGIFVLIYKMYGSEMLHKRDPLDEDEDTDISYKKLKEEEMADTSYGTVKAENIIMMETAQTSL
UniProt P12757: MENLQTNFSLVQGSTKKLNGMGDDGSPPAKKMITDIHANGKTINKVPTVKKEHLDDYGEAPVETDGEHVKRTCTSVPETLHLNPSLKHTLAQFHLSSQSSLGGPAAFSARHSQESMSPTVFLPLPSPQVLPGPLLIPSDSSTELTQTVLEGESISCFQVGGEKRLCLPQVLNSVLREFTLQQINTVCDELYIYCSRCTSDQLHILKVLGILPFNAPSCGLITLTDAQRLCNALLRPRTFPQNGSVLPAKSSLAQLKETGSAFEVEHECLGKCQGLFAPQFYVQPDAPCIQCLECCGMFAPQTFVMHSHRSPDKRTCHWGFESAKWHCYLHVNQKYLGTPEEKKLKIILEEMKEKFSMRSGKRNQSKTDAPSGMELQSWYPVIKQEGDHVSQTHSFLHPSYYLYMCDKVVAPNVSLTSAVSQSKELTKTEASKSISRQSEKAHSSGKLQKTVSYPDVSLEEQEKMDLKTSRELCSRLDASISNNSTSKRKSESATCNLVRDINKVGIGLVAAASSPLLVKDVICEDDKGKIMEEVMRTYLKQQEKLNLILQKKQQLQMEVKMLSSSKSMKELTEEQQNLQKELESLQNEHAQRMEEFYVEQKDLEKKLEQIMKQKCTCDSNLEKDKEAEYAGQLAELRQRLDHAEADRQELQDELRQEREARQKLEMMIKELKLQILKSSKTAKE

Experiments:
Test in all cases: log2 fold change, soluble protein after heating vs DMSO (PISA); higher = thermal stabilisation; K562 lysate, 10 uM; active = over 0.2 and 3.5 SD of the protein, either way, in both replicates (recomputed)
lapatinib = compound: CS(=O)(=O)CCNCc1ccc(-c2ccc3ncnc(Nc4ccc(OCc5cccc(F)c5)c(Cl)c4)c3c2)o1 [lapatinib]
Method in brief: (§1)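 Values give the log-two fold change in thermal stability against solvent controls, from duplicates. Crude K562 extract at 1 mg/mL protein, made by dounce homogenisation in PBS pH 7.4 with 1 mM MgCl2, was treated with 10 μM compound for 30 min. After 3 min heating across 48°C-58°C, aliquots were pooled, adjusted to 0.5% NP-40 at 4°C and centrifuged at 21,000xg for 90 min. The supernatant was measured by TMTpro 16plex LC-MS/MS with channel sums equalised.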

crizotinib = compound: C[C@@H](Oc1cc(-c2cnn(C3CCNCC3)c2)cnc1N)c1c(Cl)ccc(F)c1Cl [crizotinib]
Method in brief: as §1

[1] = compound: C[C@H](C1=CC=C(C=C1)C(=O)NC2=C3C=CNC3=NC=C2)N
Method in brief: as §1

duvelisib = compound: C[C@H](Nc1ncnc2nc[nH]c12)c1cc2cccc(Cl)c2c(=O)n1-c1ccccc1 [duvelisib]
Method in brief: as §1

gandotinib = compound: Cc1cc(Nc2cc(CN3CCOCC3)c3nc(C)c(Cc4ccc(Cl)cc4F)n3n2)n[nH]1 [gandotinib]
Method in brief: as §1

tozasertib = compound: Cc1cc(Nc2cc(N3CCN(C)CC3)nc(Sc3ccc(NC(=O)C4CC4)cc3)n2)n[nH]1 [tozasertib]
Method in brief: as §1

doramapimod = compound: Cc1ccc(-n2nc(C(C)(C)C)cc2NC(=O)Nc2ccc(OCCN3CCOCC3)c3ccccc23)cc1 [doramapimod]
Method in brief: as §1

[2] = compound: Cc1cccc(CC(=O)N2CCc3c2ccc(-c2cn(C)c4ncnc(N)c24)c3F)n1
Method in brief: as §1

pictilisib = compound: CS(=O)(=O)N1CCN(Cc2cc3nc(-c4cccc5[nH]ncc45)nc(N4CCOCC4)c3s2)CC1 [pictilisib]
Method in brief: as §1

bafetinib = compound: Cc1ccc(NC(=O)c2ccc(CN3CC[C@H](N(C)C)C3)c(C(F)(F)F)c2)cc1Nc1nccc(-c2cncnc2)n1 [bafetinib]
Method in brief: as §1

Measured: log2 fold change

SGMS1 (UniProt Q86VZ5)
inactive: lapatinib -0.097 | crizotinib 0.067 | [1] -0.065 | duvelisib 0.003 | gandotinib 0.037 | tozasertib 0.122 | doramapimod 0.069 | [2] 0.055

SLC12A6 isoform 2 (UniProt Q9UHW9)
inactive: lapatinib -0.019 | crizotinib -0.051 | duvelisib -0.023 | tozasertib 0.068 | doramapimod 0.054

SH3BP2 isoform 4 (UniProt P78314)
inactive: lapatinib -0.135 | crizotinib -0.021 | [1] 0.01 | duvelisib 0.053 | gandotinib -0.02 | doramapimod 0.057 | bafetinib -0.105 | [2] 0.123
active: pictilisib -0.41

SIGIRR (UniProt Q6IA17)
inactive: lapatinib 0.04 | [1] 0.146 | gandotinib 0.081 | tozasertib -0.19 | [2] 0.003

SLC22A18 (UniProt Q96BI1)
inactive: lapatinib 0.072 | pictilisib 0.026 | crizotinib -0.064 | [1] -0.094 | gandotinib 0.147 | tozasertib -0.004 | doramapimod 0.032 | bafetinib -0.001 | [2] 0.033

SHARPIN (UniProt Q9H0F6)
inactive: lapatinib 0.048 | crizotinib 0.089 | duvelisib 0.036 | tozasertib 0.011 | doramapimod -0.075

SF1 (UniProt H7C0N4)
inactive: lapatinib 0.131 | crizotinib 0.01 | [1] 0.17 | gandotinib 0.132 | tozasertib 0.064 | doramapimod 0.058 | [2] 0.036

SERBP1 isoform 3 (UniProt Q8NC51)
inactive: lapatinib -0.028 | pictilisib 0.006 | crizotinib 0.068 | duvelisib 0.041 | tozasertib -0.027 | doramapimod 0.103 | bafetinib -0.003

SINHCAF (UniProt Q9NP50)
inactive: crizotinib 0 | [1] -0.05 | duvelisib -0.028 | gandotinib -0.155 | doramapimod 0.032 | [2] 0.032

SKI (UniProt P12755)
inactive: [1] 0.134 | gandotinib 0.431 | [2] -0.162

SERPINA1 (UniProt P01009)
inactive: [1] 0.152 | duvelisib 0.044 | gandotinib -0.255 | [2] 0.203

SERPINB7 (UniProt O75635)
inactive: crizotinib -0.349 | doramapimod -0.055

SET isoform 3 (UniProt Q01105)
inactive: [1] 0.079 | duvelisib 0.193 | gandotinib 0.177 | tozasertib 0.042 | [2] 0.053

SERAC1 (UniProt Q96JX3)
inactive: pictilisib -0.018 | [1] -0.074 | duvelisib 0.145 | gandotinib 0.052 | tozasertib -0.089 | bafetinib -0.276 | [2] 0.127

SHC1 (UniProt P29353)
inactive: [1] 0.029 | gandotinib -0.033 | [2] 0.009

SIMC1 (UniProt Q8NDZ2)
inactive: pictilisib -0.25 | crizotinib -0.014 | [1] -0.134 | gandotinib 0.055 | tozasertib 0.261 | doramapimod 0.171 | bafetinib -0.035 | [2] 0.123

SIK3 (UniProt Q9Y2K2)
inactive: crizotinib 0.04 | [1] 0.236 | duvelisib 0.022 | gandotinib 0.245 | tozasertib -0.137 | doramapimod -0.021 | [2] -0.028

SHMT2 (UniProt G3V2Y4)
inactive: pictilisib -0.057 | bafetinib 0.011

SFXN4 isoform 3 (UniProt Q6P4A7)
inactive: pictilisib 0.093 | crizotinib -0.022 | [1] -0.348 | gandotinib 0.044 | tozasertib 0.297 | doramapimod 0.09 | bafetinib -0.344 | [2] 0

SIN3B (UniProt O75182)
inactive: crizotinib -0.057 | [1] -0.318 | gandotinib 0.116 | tozasertib -0.095 | doramapimod 0.584 | [2] -0.611

Copied from the entries so far (nine entries):
SKI (UniProt P12755)
inactive: [1] 0.134 | gandotinib 0.431 | [2] -0.162

SERPINA1 (UniProt P01009)
inactive: [1] 0.152 | duvelisib 0.044 | gandotinib -0.255 | [2] 0.203

SERPINB7 (UniProt O75635)
inactive: crizotinib -0.349 | doramapimod -0.055

SET isoform 3 (UniProt Q01105)
inactive: [1] 0.079 | duvelisib 0.193 | gandotinib 0.177 | tozasertib 0.042 | [2] 0.053

SERAC1 (UniProt Q96JX3)
inactive: pictilisib -0.018 | [1] -0.074 | duvelisib 0.145 | gandotinib 0.052 | tozasertib -0.089 | bafetinib -0.276 | [2] 0.127

SHC1 (UniProt P29353)
inactive: [1] 0.029 | gandotinib -0.033 | [2] 0.009

SIMC1 (UniProt Q8NDZ2)
inactive: pictilisib -0.25 | crizotinib -0.014 | [1] -0.134 | gandotinib 0.055 | tozasertib 0.261 | doramapimod 0.171 | bafetinib -0.035 | [2] 0.123

SIK3 (UniProt Q9Y2K2)
inactive: crizotinib 0.04 | [1] 0.236 | duvelisib 0.022 | gandotinib 0.245 | tozasertib -0.137 | doramapimod -0.021 | [2] -0.028

SHMT2 (UniProt G3V2Y4)
inactive: pictilisib -0.057 | bafetinib 0.011

(listing goes on)

SHLD1 (UniProt Q8IYI0)
inactive: duvelisib -0.219 | tozasertib -0.151

SETD1B (UniProt Q9UPS6)
inactive: pictilisib -0.026 | crizotinib -0.023 | [1] 0.081 | duvelisib 0.102 | gandotinib -0.214 | doramapimod 0.127 | bafetinib 0.001 | [2] 0.156

SGK3 (UniProt Q96BR1)
inactive: duvelisib 0.075

SHQ1 (UniProt Q6PI26)
inactive: pictilisib -0.013 | crizotinib 0.012 | [1] 0.038 | duvelisib -0.271 | gandotinib -0.313 | doramapimod 0.038 | bafetinib -0.087 | [2] -0.073

SIK2 (UniProt Q9H0K1)
inactive: [1] 0.166 | gandotinib 0.051 | tozasertib -0.082 | [2] -0.231

SLAIN2 (UniProt D6RIF6)
inactive: crizotinib 0.073 | doramapimod -0.115

SFT2D1 (UniProt Q8WV19)
inactive: crizotinib -0.022 | duvelisib -0.184 | doramapimod -0.262

SLC10A3 (UniProt P09131)
inactive: [1] -0.022 | gandotinib 0.004 | tozasertib 0.09 | [2] 0.008

SERPINA7 (UniProt P05543)
inactive: pictilisib 0.005 | [1] -0.058 | gandotinib 0.019 | tozasertib -0.071 | bafetinib 0.089 | [2] 0.064

SH2D1B (UniProt O14796)
inactive: crizotinib -0.032 | [1] -0.049 | duvelisib 0.003 | gandotinib 0.023 | tozasertib -0.077 | doramapimod -0.001 | [2] 0.105

SERPINB13 (UniProt Q9UIV8)
inactive: pictilisib 0.565 | bafetinib -0.117

SETD6 (UniProt Q8TBK2)
inactive: duvelisib 0.233

SIAE (UniProt Q9HAT2)
inactive: pictilisib 0.015 | crizotinib 0.16 | [1] -0.161 | gandotinib 0.163 | tozasertib 0.029 | doramapimod 0.067 | bafetinib -0.126 | [2] 0.052

SH2D3A (UniProt Q9BRG2)
inactive: pictilisib 0.043 | bafetinib 0.034

SERPINF2 (UniProt P08697)
inactive: pictilisib -0.017 | crizotinib 0.074 | [1] 0.332 | gandotinib 0.01 | tozasertib -0.015 | doramapimod -0.185 | bafetinib -0.016 | [2] -0.024

SH2B3 (UniProt Q9UQQ2)
inactive: crizotinib -0.034 | tozasertib 0.14 | doramapimod 0.057

SLC10A4 (UniProt Q96EP9)
inactive: lapatinib 0.064 | duvelisib 0.032

SGSH (UniProt P51688)
inactive: [1] 0.067 | gandotinib 0.043 | [2] 0.133

SESTD1 (UniProt Q86VW0)
inactive: crizotinib -0.047 | doramapimod 0.082

SKIL (UniProt P12757)
inactive: [1] 0.009 | gandotinib -0.076 | tozasertib -0.033 | [2] 0.132

SGO2 (UniProt Q562F6)
inactive: pictilisib 0.001 | crizotinib -0.029 | tozasertib -0.107 | doramapimod 0.043 | bafetinib -0.081
